Assay results reported in article PMC8322311.

Amino acid sequences for entries named in this document (tags omitted). A change or cut given only in a name is not applied to a line headed by its entry. Residues count along the entry.
UniProt Q9H5Y7, residues 27-841: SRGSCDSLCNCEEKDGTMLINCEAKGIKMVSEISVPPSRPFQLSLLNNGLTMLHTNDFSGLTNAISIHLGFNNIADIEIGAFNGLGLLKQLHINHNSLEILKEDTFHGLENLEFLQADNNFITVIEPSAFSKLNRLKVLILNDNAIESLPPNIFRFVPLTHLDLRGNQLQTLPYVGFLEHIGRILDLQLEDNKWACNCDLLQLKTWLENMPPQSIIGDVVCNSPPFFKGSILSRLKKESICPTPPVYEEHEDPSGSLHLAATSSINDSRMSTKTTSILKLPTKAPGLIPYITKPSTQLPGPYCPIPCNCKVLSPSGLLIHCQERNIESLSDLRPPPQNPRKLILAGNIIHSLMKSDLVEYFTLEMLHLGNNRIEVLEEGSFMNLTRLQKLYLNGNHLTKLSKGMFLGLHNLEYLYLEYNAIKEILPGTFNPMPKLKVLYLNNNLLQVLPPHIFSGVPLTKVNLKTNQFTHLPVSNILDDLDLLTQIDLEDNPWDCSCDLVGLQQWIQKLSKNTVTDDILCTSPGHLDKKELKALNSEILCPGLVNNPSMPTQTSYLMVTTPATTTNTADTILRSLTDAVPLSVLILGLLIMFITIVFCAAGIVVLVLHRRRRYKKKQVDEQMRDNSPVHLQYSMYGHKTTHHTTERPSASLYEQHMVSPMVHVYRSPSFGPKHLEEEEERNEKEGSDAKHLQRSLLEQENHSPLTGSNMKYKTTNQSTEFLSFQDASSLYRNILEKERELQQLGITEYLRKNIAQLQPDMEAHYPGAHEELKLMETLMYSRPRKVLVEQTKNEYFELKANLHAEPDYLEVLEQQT
UniProt Q15465: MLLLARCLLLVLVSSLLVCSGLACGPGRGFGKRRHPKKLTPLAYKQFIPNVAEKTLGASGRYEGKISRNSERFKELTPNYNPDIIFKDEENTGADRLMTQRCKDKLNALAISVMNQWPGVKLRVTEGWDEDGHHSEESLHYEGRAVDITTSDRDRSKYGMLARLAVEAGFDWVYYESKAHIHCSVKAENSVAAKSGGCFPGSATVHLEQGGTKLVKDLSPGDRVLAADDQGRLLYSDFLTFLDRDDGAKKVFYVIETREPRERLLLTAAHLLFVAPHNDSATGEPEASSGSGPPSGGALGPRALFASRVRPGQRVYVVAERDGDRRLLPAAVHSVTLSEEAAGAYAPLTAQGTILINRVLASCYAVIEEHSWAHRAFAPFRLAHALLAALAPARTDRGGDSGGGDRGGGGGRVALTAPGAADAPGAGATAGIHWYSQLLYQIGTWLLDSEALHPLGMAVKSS

Assays:
[1] = target: T1, recombinant human SLITRK5 extracellular domain fragment (human) (UniProt O94991); assay: ELISA; hSLITRK5-ECD (2 µg/ml) coated on 96-well plates, 2 h room temperature; SHH-His added 2 h room temperature; detected with anti-His HRP; both purified
T1 sequence: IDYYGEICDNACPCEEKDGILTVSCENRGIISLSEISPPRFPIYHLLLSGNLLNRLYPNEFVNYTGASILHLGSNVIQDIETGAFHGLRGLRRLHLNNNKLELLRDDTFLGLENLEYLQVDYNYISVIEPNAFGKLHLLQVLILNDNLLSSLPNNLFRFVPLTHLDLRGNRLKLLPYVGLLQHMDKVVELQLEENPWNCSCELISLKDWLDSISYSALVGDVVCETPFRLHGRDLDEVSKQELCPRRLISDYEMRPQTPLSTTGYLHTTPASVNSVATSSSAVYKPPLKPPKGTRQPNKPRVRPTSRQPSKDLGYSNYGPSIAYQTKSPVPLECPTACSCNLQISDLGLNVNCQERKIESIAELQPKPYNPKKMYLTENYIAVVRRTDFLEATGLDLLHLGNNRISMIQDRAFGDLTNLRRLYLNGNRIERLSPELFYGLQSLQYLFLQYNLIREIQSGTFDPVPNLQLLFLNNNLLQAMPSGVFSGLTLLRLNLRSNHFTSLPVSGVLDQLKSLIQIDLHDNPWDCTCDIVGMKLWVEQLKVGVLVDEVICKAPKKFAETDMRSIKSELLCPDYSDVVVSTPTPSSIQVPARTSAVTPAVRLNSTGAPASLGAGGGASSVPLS

SLITRK1 = target: T2, SLITRK1 (UniProt Q96PX8); assay: co-IP; immunoprecipitation of SLITRK family members with SHH (Supplementary Fig. 3b, c); cell line not given
T2 sequence: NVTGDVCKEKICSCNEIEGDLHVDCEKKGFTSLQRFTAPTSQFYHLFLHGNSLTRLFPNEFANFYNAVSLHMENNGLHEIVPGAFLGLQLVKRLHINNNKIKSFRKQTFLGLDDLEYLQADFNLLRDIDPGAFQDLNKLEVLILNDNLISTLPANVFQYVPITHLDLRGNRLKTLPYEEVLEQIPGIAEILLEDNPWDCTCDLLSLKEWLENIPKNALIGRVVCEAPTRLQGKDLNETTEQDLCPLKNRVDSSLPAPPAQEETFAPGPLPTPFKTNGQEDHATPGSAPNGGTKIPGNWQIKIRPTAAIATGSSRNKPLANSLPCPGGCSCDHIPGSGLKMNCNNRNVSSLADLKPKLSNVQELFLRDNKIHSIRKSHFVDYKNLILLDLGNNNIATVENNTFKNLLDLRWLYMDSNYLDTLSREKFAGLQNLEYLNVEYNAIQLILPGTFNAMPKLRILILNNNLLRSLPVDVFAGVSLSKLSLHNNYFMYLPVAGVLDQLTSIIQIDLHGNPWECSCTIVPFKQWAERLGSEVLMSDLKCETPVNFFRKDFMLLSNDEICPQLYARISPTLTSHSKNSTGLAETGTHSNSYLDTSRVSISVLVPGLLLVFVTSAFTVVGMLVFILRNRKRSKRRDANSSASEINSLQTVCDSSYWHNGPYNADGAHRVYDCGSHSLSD

SLITRK6 = SLITRK6 (UniProt Q9H5Y7); assay: as above
Flag-SLITRK5 = target: T3, Flag-SLITRK5 (UniProt O94991); assay: co-IP; HEK293T cells transfected with the indicated plasmids; lysis in RIPA or TNT buffer; Flag or HA agarose; immunoblot
T3 sequence: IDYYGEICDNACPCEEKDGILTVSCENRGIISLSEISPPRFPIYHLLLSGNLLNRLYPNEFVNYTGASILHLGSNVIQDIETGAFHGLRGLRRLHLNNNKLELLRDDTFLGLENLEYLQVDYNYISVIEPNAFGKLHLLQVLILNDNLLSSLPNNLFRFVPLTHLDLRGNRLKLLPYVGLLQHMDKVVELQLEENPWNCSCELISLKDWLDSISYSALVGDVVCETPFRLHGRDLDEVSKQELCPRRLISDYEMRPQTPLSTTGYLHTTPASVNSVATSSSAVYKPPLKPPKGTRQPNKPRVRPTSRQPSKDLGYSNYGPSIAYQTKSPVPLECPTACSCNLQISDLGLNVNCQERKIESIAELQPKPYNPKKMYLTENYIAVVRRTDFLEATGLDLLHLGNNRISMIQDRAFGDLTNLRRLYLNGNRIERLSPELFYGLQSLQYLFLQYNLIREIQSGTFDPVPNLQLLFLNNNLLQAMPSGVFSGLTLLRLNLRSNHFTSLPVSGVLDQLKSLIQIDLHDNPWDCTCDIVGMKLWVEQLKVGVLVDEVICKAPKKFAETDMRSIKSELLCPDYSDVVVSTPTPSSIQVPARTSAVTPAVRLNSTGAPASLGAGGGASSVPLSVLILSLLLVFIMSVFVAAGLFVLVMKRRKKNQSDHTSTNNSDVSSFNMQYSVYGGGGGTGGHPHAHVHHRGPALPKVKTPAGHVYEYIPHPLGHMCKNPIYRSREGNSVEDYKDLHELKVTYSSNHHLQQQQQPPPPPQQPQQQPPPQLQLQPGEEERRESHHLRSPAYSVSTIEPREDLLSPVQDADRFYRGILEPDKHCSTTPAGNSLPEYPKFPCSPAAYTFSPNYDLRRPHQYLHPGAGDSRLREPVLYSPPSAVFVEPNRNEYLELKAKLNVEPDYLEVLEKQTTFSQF

| binding [1] | binding (SLITRK1) | binding (SLITRK6) | binding (Flag-SLITRK5) | Substance |
| --- | --- | --- | --- | --- |
| binds | – | – | – | SHH-His (from UniProt Q15465) (ligand) |
| – | no binding | no binding | binds | SHH (in the co-immunoprecipitations) (from UniProt Q15465) (ligand) |

Results are given in words; binding and its absence hold for the method and conditions named. For some of these results: A result given as binding can be weak or reduced; the word gives no strength. For some of these results: In cells and extracts the contact can be indirect. For some of these results: Tags and fused reporters may be left off the sequences shown.
